In publication PMC4326362:
No constants are given. Whether binding was seen depends on the method and setting. For some assays here: Binding seen in cells or lysates may run through a third protein. Some binding calls cover weakened binding; strength is not graded here.

The chains behind the UniProt entries cited, without tags or fusion partners. Residues count along the entry.
UniProt P48736, residues 141-311: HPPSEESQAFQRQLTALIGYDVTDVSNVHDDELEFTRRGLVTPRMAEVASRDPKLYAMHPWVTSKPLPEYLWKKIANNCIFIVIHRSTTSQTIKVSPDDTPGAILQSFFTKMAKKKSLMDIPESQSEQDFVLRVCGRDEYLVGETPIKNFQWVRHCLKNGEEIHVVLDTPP
UniProt Q9JHG7: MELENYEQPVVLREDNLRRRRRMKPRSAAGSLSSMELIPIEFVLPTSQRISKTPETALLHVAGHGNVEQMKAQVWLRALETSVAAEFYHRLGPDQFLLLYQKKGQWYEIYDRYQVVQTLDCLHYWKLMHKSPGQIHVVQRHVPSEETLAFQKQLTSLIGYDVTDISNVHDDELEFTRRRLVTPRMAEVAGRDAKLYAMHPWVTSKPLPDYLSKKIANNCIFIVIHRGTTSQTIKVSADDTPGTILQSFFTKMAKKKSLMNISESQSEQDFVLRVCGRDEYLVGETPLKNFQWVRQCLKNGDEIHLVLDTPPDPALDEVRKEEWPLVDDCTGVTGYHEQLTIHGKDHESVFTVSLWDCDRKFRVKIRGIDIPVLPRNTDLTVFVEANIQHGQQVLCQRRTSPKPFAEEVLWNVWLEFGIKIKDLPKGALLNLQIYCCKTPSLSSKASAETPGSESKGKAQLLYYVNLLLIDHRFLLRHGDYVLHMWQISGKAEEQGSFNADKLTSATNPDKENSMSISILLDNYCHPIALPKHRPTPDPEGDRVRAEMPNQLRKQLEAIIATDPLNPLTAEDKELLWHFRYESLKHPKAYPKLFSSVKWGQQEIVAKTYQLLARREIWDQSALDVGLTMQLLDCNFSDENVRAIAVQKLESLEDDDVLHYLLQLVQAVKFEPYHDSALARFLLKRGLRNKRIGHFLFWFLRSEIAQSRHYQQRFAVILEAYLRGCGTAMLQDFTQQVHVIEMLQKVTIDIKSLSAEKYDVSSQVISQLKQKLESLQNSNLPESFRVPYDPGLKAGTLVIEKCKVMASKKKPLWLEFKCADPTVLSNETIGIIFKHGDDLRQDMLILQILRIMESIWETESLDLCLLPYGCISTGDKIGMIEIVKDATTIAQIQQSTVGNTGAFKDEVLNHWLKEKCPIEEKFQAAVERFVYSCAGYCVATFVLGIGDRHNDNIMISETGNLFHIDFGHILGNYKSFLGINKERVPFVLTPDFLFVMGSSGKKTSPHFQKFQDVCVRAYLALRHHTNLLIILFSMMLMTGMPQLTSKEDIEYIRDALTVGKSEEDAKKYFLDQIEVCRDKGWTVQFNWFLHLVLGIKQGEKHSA

Legend:
[1] = molecular target: T1, full-length CNGA1 in the pDHB1 membrane-based yeast two-hybrid bait vector (UniProt Q00194); assay: two-hybrid; split ubiquitin-based membrane yeast two-hybrid in DSY-1 yeast; full-length CNGA1 in pDHB1 as bait, preys in pDL2-Nx; filter lift and liquid β-galactosidase assays
T1 sequence: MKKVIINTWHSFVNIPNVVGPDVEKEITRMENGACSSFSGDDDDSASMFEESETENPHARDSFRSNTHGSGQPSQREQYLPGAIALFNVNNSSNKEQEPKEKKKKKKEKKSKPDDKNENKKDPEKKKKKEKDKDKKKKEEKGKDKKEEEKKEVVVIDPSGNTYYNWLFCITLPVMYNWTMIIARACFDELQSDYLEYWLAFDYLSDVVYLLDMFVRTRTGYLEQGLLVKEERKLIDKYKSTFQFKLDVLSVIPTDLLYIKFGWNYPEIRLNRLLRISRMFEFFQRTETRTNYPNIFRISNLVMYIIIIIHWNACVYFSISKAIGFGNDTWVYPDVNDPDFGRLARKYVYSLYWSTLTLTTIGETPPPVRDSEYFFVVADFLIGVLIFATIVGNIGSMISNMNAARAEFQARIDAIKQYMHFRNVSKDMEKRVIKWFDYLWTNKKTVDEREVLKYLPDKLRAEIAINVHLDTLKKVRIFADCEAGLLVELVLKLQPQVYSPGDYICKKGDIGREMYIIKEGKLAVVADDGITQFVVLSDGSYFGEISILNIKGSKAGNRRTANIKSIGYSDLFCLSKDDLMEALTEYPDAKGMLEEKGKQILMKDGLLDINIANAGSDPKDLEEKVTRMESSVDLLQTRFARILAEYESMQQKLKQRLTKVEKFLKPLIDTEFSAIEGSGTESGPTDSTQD

[2] = molecular target: T2, CNGA1 of mouse rod outer segments (mouse (endogenous in ROS)) (UniProt P29974); assay: co-IP; solubilized ROS immunoprecipitated with anti-CNGA1 antibody or non-immune IgG; PI3K detected in the immunoprecipitates by its activity on PI-4,5-P2 and [γ32P]ATP (TLC, scintillation counting); also from dark- and light-adapted mice and from IR wild-type and IR knockout mice
T2 sequence: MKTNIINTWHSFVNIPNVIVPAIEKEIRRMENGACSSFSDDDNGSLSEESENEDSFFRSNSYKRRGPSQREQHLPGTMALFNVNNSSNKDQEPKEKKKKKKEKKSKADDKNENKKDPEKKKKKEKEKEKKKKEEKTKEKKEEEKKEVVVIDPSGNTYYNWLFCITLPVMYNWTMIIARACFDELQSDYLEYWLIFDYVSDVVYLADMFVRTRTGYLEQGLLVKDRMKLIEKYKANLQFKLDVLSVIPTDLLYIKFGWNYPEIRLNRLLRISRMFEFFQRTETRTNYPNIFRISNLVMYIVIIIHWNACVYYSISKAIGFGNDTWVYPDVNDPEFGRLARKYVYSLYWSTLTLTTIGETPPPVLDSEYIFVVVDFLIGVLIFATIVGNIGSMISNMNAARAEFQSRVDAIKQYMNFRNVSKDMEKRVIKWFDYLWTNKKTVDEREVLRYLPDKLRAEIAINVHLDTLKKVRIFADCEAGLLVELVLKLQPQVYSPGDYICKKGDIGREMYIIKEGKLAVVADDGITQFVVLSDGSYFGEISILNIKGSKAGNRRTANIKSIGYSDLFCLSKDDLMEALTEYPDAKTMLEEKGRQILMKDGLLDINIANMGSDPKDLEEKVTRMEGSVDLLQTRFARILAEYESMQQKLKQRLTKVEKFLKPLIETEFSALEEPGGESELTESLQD

Row | binding [1] | binding [2] | Substance
1 | binds | – | RA-PI3Kγ in the pDL2-Nx prey vector (from UniProt P48736 141-311) (domain or fragment)
2 | – | binds | PI3Kγ of mouse rod outer segments (from UniProt Q9JHG7 1-1102) (enzyme)
